Some of the results follow.
Compound: Cc1cc(ccc1-c1ccccc1)C(=O)N1CCCN(CC1)C(=O)CCl [compound 10]
Assay: probe-labelled cysteine peptide fold change vs DMSO (competition) (log2 fold change); higher = less target engagement (more negative = stronger competition)
Details: THP-1, incubation time: 4 h
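Also: competitive profiling in live THP-1 cells: cysteine peptides tagged with an iodoacetamide desthiobiotin (IA-DTB) probe, intensity after compound treatment relative to DMSO-treated cells.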

Sequences of proteins named here, by UniProt entry; tags and fusion partners are left off. A change or cut given only in a name is not applied to a line headed by its entry.
UniProt Q8NDZ2: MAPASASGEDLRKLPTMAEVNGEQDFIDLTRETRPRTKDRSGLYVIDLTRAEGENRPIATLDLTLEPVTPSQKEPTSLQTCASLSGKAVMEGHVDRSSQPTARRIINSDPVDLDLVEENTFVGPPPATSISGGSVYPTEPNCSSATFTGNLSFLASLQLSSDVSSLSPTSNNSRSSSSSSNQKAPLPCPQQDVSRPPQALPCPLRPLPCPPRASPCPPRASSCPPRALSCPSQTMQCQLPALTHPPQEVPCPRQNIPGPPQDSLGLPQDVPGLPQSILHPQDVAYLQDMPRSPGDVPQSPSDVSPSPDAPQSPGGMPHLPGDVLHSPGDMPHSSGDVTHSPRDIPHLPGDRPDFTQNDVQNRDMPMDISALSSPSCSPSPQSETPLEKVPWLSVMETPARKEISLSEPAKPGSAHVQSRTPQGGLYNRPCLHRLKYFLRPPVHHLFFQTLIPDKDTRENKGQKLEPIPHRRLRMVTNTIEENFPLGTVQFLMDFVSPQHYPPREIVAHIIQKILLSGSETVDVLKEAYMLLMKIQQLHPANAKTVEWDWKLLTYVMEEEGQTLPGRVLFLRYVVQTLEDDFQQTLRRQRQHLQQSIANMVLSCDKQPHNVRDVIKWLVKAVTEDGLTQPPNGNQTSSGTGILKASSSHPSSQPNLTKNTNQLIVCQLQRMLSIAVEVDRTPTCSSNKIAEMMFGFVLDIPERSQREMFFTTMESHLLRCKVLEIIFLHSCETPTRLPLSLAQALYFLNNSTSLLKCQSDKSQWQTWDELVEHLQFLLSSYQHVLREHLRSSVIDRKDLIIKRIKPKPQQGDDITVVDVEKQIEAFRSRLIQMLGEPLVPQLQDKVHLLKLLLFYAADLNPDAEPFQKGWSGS
UniProt Q15477, whole entry, looked up: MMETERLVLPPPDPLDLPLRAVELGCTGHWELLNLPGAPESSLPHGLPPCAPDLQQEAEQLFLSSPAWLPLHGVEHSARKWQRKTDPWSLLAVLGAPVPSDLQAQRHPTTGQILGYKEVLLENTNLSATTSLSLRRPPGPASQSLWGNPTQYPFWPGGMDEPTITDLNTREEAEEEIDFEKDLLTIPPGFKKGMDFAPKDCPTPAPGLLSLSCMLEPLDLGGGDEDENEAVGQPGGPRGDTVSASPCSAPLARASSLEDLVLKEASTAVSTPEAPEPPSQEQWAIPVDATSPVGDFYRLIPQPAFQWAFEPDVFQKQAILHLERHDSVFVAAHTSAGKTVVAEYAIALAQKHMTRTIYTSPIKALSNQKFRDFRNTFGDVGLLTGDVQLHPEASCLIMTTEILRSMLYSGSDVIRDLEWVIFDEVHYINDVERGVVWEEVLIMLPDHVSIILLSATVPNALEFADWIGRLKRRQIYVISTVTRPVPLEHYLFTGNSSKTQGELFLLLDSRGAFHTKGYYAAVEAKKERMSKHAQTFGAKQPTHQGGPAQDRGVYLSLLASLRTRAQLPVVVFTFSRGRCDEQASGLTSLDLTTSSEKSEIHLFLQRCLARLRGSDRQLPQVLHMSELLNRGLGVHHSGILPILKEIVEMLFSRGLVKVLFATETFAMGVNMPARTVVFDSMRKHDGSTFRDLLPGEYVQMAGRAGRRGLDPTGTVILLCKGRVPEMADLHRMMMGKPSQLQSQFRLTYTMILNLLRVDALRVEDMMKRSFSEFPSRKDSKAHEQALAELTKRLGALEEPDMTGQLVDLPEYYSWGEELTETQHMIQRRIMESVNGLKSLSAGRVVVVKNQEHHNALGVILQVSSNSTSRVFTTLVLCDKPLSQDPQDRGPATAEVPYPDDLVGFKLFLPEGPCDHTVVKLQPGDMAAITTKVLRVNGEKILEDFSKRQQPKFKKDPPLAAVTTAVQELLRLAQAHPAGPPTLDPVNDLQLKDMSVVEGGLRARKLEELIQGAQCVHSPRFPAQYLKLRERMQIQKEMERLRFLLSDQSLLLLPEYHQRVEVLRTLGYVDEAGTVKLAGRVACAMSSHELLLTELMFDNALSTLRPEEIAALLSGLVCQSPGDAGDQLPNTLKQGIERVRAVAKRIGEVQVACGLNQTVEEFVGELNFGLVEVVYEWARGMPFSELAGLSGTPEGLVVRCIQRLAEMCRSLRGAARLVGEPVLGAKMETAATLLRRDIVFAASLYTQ
UniProt Q5K4L6: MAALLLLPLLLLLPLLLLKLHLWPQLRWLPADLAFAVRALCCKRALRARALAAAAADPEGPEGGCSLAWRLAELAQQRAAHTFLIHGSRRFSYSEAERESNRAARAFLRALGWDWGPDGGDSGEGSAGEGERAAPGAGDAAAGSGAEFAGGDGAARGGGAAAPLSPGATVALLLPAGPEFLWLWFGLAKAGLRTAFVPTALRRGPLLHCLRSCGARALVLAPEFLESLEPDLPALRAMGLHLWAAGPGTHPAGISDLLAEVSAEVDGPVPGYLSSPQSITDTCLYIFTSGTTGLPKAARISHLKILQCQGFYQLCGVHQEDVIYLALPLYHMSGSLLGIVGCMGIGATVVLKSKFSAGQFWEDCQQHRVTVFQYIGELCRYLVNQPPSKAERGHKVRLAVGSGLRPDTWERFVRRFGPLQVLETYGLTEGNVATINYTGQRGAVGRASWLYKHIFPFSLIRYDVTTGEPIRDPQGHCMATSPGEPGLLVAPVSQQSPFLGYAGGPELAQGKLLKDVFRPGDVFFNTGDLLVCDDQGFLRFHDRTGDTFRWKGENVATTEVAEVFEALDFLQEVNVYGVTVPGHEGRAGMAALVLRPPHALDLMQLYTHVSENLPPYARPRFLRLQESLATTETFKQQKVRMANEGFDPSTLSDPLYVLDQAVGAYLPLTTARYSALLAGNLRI
UniProt Q9NP50: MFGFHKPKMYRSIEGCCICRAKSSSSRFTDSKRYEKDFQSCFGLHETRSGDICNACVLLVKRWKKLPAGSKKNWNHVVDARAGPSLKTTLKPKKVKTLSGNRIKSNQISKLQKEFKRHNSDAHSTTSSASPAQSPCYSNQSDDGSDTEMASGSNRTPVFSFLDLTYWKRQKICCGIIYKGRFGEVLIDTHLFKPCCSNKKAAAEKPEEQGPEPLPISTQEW
UniProt Q9BYW2: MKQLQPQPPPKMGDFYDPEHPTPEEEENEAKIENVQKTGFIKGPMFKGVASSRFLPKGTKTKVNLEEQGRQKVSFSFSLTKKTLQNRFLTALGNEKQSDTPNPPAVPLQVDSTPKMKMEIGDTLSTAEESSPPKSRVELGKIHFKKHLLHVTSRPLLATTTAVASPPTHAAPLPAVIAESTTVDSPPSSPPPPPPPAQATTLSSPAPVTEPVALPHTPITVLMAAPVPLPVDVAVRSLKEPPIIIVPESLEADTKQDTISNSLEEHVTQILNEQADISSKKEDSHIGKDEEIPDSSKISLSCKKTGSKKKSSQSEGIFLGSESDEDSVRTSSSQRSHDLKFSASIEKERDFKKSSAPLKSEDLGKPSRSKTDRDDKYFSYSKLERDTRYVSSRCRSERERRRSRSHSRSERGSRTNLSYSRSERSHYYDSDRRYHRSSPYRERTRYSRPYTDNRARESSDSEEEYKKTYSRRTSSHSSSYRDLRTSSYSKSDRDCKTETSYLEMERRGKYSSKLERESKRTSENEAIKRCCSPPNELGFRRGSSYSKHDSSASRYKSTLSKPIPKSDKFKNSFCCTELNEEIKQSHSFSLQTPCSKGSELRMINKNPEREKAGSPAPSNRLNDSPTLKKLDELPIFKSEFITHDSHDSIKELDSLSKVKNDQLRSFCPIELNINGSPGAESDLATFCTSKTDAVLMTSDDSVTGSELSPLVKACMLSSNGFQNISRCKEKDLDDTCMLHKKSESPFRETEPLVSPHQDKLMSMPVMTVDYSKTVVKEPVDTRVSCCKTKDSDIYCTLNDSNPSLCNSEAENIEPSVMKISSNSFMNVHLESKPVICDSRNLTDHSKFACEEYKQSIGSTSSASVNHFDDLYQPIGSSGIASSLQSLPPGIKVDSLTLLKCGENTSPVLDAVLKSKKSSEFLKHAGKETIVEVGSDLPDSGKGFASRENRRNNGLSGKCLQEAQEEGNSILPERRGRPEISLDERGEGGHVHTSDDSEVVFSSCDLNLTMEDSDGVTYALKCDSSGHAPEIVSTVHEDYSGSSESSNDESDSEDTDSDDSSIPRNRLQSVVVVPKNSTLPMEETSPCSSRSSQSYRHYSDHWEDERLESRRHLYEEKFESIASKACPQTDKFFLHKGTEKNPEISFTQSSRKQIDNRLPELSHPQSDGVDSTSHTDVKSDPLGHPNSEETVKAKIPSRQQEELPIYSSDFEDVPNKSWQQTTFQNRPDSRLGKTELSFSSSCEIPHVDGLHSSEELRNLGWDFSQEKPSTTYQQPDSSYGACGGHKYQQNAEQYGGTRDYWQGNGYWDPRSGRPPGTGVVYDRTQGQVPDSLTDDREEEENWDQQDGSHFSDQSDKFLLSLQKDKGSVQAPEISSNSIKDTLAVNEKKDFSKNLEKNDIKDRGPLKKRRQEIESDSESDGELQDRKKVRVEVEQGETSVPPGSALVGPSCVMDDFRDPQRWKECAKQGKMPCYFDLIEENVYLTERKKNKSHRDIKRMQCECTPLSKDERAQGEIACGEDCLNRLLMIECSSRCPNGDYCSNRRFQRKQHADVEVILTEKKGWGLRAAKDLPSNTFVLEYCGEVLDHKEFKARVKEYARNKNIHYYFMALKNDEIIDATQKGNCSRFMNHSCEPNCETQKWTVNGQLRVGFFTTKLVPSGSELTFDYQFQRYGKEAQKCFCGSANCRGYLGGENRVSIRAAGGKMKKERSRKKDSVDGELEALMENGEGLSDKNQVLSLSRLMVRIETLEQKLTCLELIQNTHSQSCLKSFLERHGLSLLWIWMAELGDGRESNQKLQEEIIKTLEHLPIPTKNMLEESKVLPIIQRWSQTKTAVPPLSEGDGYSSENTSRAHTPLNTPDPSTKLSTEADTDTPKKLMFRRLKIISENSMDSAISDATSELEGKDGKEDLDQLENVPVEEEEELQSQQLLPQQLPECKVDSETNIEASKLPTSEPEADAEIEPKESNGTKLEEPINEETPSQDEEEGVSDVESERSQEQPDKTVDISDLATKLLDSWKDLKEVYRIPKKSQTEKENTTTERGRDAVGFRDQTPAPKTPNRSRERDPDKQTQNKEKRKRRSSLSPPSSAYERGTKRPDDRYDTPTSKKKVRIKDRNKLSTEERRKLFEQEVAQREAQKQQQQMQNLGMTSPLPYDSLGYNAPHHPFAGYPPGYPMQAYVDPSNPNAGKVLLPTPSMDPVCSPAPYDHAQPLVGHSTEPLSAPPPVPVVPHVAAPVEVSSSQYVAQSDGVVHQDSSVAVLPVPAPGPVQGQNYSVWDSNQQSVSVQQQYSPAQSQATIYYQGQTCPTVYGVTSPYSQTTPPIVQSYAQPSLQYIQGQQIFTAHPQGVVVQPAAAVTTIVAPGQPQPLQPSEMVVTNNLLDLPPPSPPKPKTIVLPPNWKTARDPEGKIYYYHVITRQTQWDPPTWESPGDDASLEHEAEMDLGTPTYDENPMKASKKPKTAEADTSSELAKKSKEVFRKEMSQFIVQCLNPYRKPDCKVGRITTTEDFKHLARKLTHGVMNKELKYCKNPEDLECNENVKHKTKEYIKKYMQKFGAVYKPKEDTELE
UniProt Q99961: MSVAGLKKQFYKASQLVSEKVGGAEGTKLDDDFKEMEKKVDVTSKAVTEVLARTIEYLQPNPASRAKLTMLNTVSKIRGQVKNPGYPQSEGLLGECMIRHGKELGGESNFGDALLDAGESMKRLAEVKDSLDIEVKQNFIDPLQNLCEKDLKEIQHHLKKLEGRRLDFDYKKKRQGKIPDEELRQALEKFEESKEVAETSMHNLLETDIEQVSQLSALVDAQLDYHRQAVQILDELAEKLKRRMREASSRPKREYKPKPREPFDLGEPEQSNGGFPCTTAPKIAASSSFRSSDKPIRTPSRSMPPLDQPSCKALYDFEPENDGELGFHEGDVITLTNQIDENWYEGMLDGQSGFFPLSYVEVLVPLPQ
UniProt Q9HC21: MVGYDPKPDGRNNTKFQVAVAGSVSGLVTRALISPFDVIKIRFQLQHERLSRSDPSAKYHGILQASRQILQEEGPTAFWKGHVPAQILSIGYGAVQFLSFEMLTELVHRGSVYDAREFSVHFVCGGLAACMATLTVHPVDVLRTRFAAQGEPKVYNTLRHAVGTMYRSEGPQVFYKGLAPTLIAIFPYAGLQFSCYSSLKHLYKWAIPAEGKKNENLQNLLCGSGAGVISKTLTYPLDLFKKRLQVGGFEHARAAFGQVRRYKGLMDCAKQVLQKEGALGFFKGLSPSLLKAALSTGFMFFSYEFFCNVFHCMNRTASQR
UniProt Q96CQ1: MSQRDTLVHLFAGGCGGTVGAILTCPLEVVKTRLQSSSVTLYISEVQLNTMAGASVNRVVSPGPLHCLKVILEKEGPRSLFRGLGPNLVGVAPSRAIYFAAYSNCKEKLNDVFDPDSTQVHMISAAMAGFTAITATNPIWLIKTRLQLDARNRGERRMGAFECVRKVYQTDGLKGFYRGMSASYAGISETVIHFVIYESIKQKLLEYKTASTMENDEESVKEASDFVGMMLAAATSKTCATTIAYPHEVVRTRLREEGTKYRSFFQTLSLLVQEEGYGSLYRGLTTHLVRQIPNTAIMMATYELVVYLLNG

| Target | probe-labelled cysteine peptide fold change (10 µM) | probe-labelled cysteine peptide fold change (50 µM) |
| --- | --- | --- |
| SIMC1_Q8NDZ2_603_QHLQQSIANMVLSCDK (UniProt Q8NDZ2) | -0.25 | -0.542 |
| SF3A3_Q12874_408_LHGLNINYNCEICGNYTYR (UniProt Q12874) | -0.143 | -0.0252 |
| SLC25A4_P12235_160_EFHGLGDCIIK (UniProt P12235) | -0.0565 | -0.0685 |
| SKA1_Q96BD8_10_ASSDLEQLCSHVNEK (UniProt Q96BD8) | 0.00496 | -0.177 |
| SKP1_P63208_62_VIQWCTHHK (UniProt P63208) | 0.181 | 0.677 |
| SETX_Q7Z333_884_NEELVIFSFHENNCK (UniProt Q7Z333) | -0.233 | -0.444 |
| SLAIN1_Q8ND83_313_KGTCSDQEYDQYSLEDEEEFDHLPPPQPR (UniProt Q8ND83) | -0.0555 | -0.229 |
| SETDB1_Q15047_819_CLDDIAK (UniProt Q15047) | -0.0539 | -0.0967 |
| SH3GLB1_Q9Y371_121_CGETQKR (UniProt Q9Y371) | -0.0376 | -0.383 |
| SFMBT2_Q5VUG0_426_NPGELCVASVVSVK (UniProt Q5VUG0) | 0.135 | 0.3 |
| SKIV2L_Q15477_913_LFLPEGPCDHTVVK (UniProt Q15477) | -0.034 | 0.0129 |
| SF3B6_Q9Y3B4_74+83_NACDHLSGFNVCNR (UniProt Q9Y3B4) | 0.117 | 0.15 |
| SLC25A5_P05141_257_GTDIMYTGTLDCWRK (UniProt P05141) | -0.0476 | -0.127 |
| SHKBP1_Q8TBC3_491_ILALESADGHGGCSAGNDIGPYGER (UniProt Q8TBC3) | -0.0949 | -0.0128 |
| SLC25A20_O43772_136_CLLQIQASSGESK (UniProt O43772) | 0.0784 | -0.0678 |
| SKIV2L_Q15477_247_GDTVSASPCSAPLAR (UniProt Q15477) | -0.402 | -0.17 |
| SHCBP1_Q8NEM2_500+510_GAGIEIYPGSQCTLSDNGIHHCK (UniProt Q8NEM2) | -0.0561 | -0.139 |
| SGO2_Q562F6_1041_HITSEADSDPGNPVELCK (UniProt Q562F6) | -0.0847 | 0.0781 |
| SEPT9_Q9UHD8_531_WGTIEVENTTHCEFAYLR (UniProt Q9UHD8) | -0.0632 | 0.107 |

| Target | probe-labelled cysteine peptide fold change (10 µM) | probe-labelled cysteine peptide fold change (50 µM) |
| --- | --- | --- |
| SLC25A22_Q9H936_271_GVNEDTYSGILDCAR (UniProt Q9H936) | 0.0192 | 0.0793 |
| SLC27A3_Q5K4L6_579_DVFRPGDVFFNTGDLLVCDDQGFLR (UniProt Q5K4L6) | -0.0141 | 0.00179 |
| SIRT5_Q9NXA8_293+303_FHFQGPCGTTLPEALACHENETVS (UniProt Q9NXA8) | 0.279 | 0.3 |
| SINHCAF_Q9NP50_41_DFQSCFGLHETR (UniProt Q9NP50) | -0.13 | -0.193 |
| SKIV2L_Q15477_579_GRCDEQASGLTSLDLTTSSEK (UniProt Q15477) | 0.154 | -0.112 |
| SFMBT1_Q9UHJ3_325_SFVCHADSPGIFPVQWSLK (UniProt Q9UHJ3) | 0.104 | -0.00543 |
| SETD2_Q9BYW2_836_ISSNSFMNVHLESKPVICDSR (UniProt Q9BYW2) | 0.115 | 0.0162 |
| SLC27A1_Q6PCB7_204_FCSGDLGPEGILPDTHLLDPLLK (UniProt Q6PCB7) | 0.285 | 0.102 |
| SH3GL1_Q99961_277_EPFDLGEPEQSNGGFPCTTAPK (UniProt Q99961) | -0.27 | -0.207 |
| SHMT2_P34897_119_RYYGGAEVVDEIELLCQR (UniProt P34897) | -0.00529 | 0.256 |
| SH3GL1_Q99961_96_NPGYPQSEGLLGECMIR (UniProt Q99961) | -0.0179 | -0.241 |
| SGTA_O43765_148_LGNYAGAVQDCER (UniProt O43765) | 0.191 | -0.104 |
| SLC25A1_P53007_262_NTWDCGLQILKK (UniProt P53007) | -0.0324 | -0.567 |
| SLC25A19_Q9HC21_124_EFSVHFVCGGLAACMATLTVHPVDVLR (UniProt Q9HC21) | 0.0634 | 0.0675 |
| SLC25A36_Q96CQ1_67_VVSPGPLHCLK (UniProt Q96CQ1) | 0.149 | -0.182 |
| SEPT8_Q92599_49_SVTQGFSFNILCVGETGIGK (UniProt Q92599) | 0.0289 | 0.327 |
| SKIV2L_Q15477_877_VFTTLVLCDKPLSQDPQDR (UniProt Q15477) | 0.178 | 0.0839 |
| SLC27A3_Q5K4L6_256_GPLLHCLR (UniProt Q5K4L6) | 0.0831 | -0.0208 |
